Article PMC3844623
Results are given in words; binding and its absence hold for the method and conditions named. Binding seen in cells or lysates may run through a third protein. A result given as binding can be weak or reduced; the word gives no strength.

Target: T1, neutral sphingomyelinase 2 (rat (endogenous in hippocampus)) (UniProt O35049)
T1 sequence: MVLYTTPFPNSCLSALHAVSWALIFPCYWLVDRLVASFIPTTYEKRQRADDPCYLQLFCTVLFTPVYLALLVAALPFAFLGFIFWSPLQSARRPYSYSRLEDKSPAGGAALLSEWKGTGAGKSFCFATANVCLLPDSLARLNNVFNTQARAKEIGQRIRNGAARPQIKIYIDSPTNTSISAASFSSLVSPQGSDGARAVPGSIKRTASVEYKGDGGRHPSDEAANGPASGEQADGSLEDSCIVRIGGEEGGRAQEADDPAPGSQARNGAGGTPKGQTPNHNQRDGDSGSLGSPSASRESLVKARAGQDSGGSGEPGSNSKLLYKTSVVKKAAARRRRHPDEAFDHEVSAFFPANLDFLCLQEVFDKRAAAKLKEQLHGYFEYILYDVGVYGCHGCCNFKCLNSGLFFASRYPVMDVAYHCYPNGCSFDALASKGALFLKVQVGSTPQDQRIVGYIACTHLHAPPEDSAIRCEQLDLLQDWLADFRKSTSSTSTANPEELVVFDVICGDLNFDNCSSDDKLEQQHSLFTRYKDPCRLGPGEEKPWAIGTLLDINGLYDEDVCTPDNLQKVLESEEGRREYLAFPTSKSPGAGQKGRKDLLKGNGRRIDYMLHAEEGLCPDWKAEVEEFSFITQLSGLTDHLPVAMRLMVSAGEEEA
Experiment: co-IP; rat hippocampus lysates (50 mM Tris-HCl, 150 mM NaCl, 1% Triton X-100, 1 mM EDTA, pH 7.4) incubated with nSMase2 antibody overnight at 4°C, protein A agarose; immunoblot for RACK1 and EED; sham or 10 min ischemia with 0.5, 1, 6 or 24 h of reperfusion; with R-7050 (TNF-α receptor inhibitor, 10 μM) or solvent injected into the lateral ventricle

binding: binds
Substance: embryonic ectoderm development (rat (endogenous in hippocampus))
